Results deposited as PubChem BioAssay AID652243 (Drosophila RNAi Screening Center, 2013).

Purpose: 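Fly regulators of androgen-dependent reporter output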 (primary screen)
System: Drosophila S2R+ cells
Reagent: long dsRNA against Drosophila genes
Duration: 72 h (48 h, then 24 h hormone)
Challenge: synthetic androgen R1881 at 10 nM for 24 h
Measured: 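Per-well raw luminescence of the androgen-driven firefly reporter and of the Renilla control, two replicates each, without normalisation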
Reading the numbers: firefly reporter light: higher = more light from androgen-responsive reporter; Renilla control light: higher = more constitutive control signal (cell number, transfection)
Call rule: 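Across duplicate plates, a knock-down whose log firefly/Renilla ratio shifted a set fold down or up from the GFP/LacZ control mean was a hit; the downward cut appears as both 1.5 and 3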
Meaning of the calls: active = hit: reporter lowered or raised; inactive = no hit
The screen tested about 24,000 reagents; this is an unselected part of those with a known target gene and a result. In the full data, 246 (1%) got an active call. 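Plates not normalised; calls are printed but the firefly/Renilla ratio behind them is not deposited; fold cut for lowering reported inconsistently.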 Raw values vary from plate to plate and are shown uncorrected. Reagents against one gene are numbered here. Names joined by + are all predicted targets of the reagent. Not stated in the record: the amount of reagent.

gene,reagent no.,"firefly reporter light, replicate 1","firefly reporter light, replicate 2","Renilla control light, replicate 1","Renilla control light, replicate 2",outcome
Phae1,1,2.66e5,4.05e5,1.97e6,2.80e6,inactive
Larp4B,1,6.53e5,5.62e5,7.49e5,4.75e5,inactive
Larp4B,2,4.55e5,3.90e5,1.14e6,1.14e6,inactive
e(y)3,1,1.61e5,2.00e5,4.42e5,7.45e5,inactive
e(y)3,2,4.73e5,2.72e5,3.57e5,3.35e5,inactive
CG11000,1,4.23e5,2.45e5,5.18e5,2.53e5,inactive
CG11000,2,1.03e5,1.09e5,2.89e6,2.67e6,inactive
CG11000,3,4.41e5,3.38e5,7.32e5,5.52e5,inactive
Sbds,1,1.08e6,9.60e5,1.18e6,1.65e6,inactive
Rae1,1,8.21e5,6.29e5,1.85e6,2.16e6,inactive
CG34057,1,58467,84537,6.80e5,6.53e5,inactive
CG17985,1,5.51e5,3.59e5,2.29e6,1.54e6,inactive
CG7848,1,73517,38636,1.05e6,1.05e6,inactive
CG6972 + CCAP,1,3.54e5,5.34e5,5.80e5,1.08e6,inactive
grn,1,78013,41535,1.34e6,1.30e6,inactive
grn,2,3.05e5,3.67e5,1.06e6,8.17e5,inactive
eIF4EHP,1,2.17e5,1.97e5,3.42e5,5.31e5,inactive
eIF4EHP,2,50491,54792,5.60e5,5.76e5,inactive
CG6028,1,60318,51330,4.07e5,3.81e5,inactive
mRpS26,1,2.64e5,1.90e5,1.93e6,2.22e6,inactive
mRpS26,2,3.98e5,4.82e5,7.03e5,7.26e5,inactive
Ets98B,1,5.92e5,6.33e5,1.85e6,1.94e6,inactive
Ets98B,2,4.54e5,3.09e5,5.64e5,4.52e5,inactive
CG34330,1,2.20e5,1.39e5,1.19e6,5.25e5,inactive
CG34330,2,2.88e5,4.19e5,4.78e5,4.78e5,inactive
GlcT,1,9.03e5,9.91e5,1.44e6,1.06e6,inactive
GlcT,2,6.26e5,4.17e5,1.59e6,1.17e6,inactive
Ssrp,1,3.68e5,3.32e5,9.17e5,1.04e6,inactive
Ssrp,2,4.08e5,3.22e5,1.32e6,1.08e6,inactive
Ssrp,3,4.64e5,3.17e5,1.42e6,1.27e6,inactive
CG9890,1,2.29e5,4.41e5,1.37e6,1.48e6,inactive
CG9890,2,1.28e6,1.09e6,9.79e5,1.03e6,inactive
Polr3A,1,5.24e5,5.34e5,4.33e6,3.78e6,inactive
CG44837,1,27297,24021,6.25e5,6.07e5,active
CG44837,2,1.54e5,1.54e5,2.24e6,1.74e6,inactive
CG44837,3,9.68e5,9.50e5,1.33e6,1.49e6,inactive
CG34445,1,2.77e5,5.47e5,4.17e5,5.10e5,inactive
saturn,1,3.52e5,3.87e5,5.82e5,7.69e5,inactive
saturn,2,5.03e5,8.33e5,6.86e5,1.63e6,inactive
Gr28b,1,1.96e5,1.84e5,1.86e6,1.83e6,inactive
Gr28b,2,1.64e5,1.71e5,1.25e6,1.08e6,inactive
Gr28b,3,7.16e5,6.15e5,1.14e6,1.14e6,inactive

Part of the list above, limited to “Renilla control light, replicate 2”:
Polr3A: 3.78e6
CG44837 #1: 6.07e5
CG44837 #2: 1.74e6
